Assay results published in doi:10.1101/379453.
These are yes or no findings as the source states them, for the method shown. In cells and extracts the contact can be indirect. Some entries that bind do so weakly or less than the wild type.

The chains behind the UniProt entries cited, without tags or fusion partners.
UniProt Q12778: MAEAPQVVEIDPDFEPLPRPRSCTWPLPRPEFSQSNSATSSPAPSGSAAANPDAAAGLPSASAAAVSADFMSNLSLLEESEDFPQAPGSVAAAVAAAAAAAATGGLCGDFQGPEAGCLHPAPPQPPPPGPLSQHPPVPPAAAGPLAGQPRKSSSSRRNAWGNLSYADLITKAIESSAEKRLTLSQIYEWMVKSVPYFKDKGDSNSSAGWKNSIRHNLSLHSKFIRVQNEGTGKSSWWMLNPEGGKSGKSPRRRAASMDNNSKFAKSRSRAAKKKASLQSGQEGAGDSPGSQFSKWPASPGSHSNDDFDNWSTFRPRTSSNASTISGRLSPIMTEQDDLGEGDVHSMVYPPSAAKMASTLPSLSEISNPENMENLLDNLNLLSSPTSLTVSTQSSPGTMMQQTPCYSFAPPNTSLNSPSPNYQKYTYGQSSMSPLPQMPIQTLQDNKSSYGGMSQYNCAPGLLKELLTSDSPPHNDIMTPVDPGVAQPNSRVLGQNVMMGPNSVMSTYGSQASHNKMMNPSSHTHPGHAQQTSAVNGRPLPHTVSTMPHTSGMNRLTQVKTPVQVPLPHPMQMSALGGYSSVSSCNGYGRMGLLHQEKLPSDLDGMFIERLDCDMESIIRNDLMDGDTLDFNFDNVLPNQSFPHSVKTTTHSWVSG
UniProt P35222: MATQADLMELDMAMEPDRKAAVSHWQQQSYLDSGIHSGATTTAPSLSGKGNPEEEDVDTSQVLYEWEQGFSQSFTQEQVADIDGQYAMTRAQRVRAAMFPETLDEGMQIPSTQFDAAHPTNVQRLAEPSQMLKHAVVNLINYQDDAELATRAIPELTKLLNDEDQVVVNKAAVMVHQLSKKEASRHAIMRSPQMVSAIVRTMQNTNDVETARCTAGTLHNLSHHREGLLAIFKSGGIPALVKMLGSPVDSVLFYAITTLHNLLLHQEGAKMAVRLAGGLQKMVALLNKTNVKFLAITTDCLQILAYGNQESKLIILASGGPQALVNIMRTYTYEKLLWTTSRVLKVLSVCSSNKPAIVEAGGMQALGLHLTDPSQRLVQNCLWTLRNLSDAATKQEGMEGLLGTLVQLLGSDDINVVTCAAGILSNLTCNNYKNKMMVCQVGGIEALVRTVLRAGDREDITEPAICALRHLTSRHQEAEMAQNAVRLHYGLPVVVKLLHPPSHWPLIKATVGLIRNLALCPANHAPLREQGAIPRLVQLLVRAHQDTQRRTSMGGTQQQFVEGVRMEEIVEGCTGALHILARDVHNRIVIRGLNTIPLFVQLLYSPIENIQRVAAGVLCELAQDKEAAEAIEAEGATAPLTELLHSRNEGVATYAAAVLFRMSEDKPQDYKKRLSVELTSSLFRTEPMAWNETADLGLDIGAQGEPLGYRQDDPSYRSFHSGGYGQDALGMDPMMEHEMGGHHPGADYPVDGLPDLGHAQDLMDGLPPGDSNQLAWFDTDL

Molecular target: Foxo1 (human (endogenous in Tregs)) (UniProt Q12778)
Test: proximity ligation

With β-catenin (from UniProt P35222 1-781) as the substance, how does the binding read?
Its binding is “binds”.
